Among the data in publication PMC4881898, “CD14 Is a Co-Receptor for TLR4 in the S100A9-Induced Pro-Inflammatory Response in Monocytes” (PLoS ONE, 2016) are binding values, retold here.

Results are given in words; binding and its absence hold for the method and conditions named.

The target of the assay is T1, recombinant human S100A8 (human) (UniProt P05109).
T1 sequence: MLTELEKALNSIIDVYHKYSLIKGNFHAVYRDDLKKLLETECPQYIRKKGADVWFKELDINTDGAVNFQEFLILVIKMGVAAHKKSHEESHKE
Put plainly: SPR; Biacore 3000; S100A8 and S100A9 immobilised in separate flow cells on a CM5 chip by amine coupling, to the same level; CD14 injected at 50 to 800 nM for 2 min at 30 ul/min in HBS-P (10 mM HEPES, 0.15 M NaCl, pH 7.4, 0.005% P20) with 1 mM Ca2+ and 20 uM Zn2+; regeneration with 3 mM EDTA; sensorgrams fit to a 1:1 model; both purified. (Surface plasmon resonance follows binding to a sensor surface in real time, without labels.)

B1: recombinant human CD14 (receptor, UniProt P08571 20-345)
chain: TTPEPCELDDEDFRCVCNFSEPQPDWSEAFQCVSAVEVEIHAGGLNLEPFLKRVDADADPRQYADTVKALRVRRLTVGAAQVPAQLLVGALRVLAYSRLKELTLEDLKITGTMPPLPLEATGLALSSLRLRNVSWATGRSWLAELQQWLKPGLKVLSIAQAHSPAFSCEQVRAFPALTSLDLSDNPGLGERGLMAALCPHKFPAIQNLALRNTGMETPTGVCAALAAAGVQPHSLDLSHNSLRATVNPSAPRCMWSSALNSLNLSFAGLEQVPKGLPAKLRVLDLSCNRLNRAPQPDELPEVDNLTLDGNPFLVPGTALPHEGSMN
In the case of B1, the binding entry is given as “no binding (tested: 50 to 800 nM CD14)”.
